In the supplement of paper PMC11732987, “Enantioselective OTUD7B fragment discovery through chemoproteomics screening and high-throughput optimisation” (Communications Chemistry, 2025):
This is one part of the list. The data scatter; read single values as rough.

By UniProt entry, the sequences of proteins in these tests, tags left out. Where a name states a change or a piece, a line headed by the entry shows the natural chain unless it says otherwise. Residues count along the entry.
UniProt P27815: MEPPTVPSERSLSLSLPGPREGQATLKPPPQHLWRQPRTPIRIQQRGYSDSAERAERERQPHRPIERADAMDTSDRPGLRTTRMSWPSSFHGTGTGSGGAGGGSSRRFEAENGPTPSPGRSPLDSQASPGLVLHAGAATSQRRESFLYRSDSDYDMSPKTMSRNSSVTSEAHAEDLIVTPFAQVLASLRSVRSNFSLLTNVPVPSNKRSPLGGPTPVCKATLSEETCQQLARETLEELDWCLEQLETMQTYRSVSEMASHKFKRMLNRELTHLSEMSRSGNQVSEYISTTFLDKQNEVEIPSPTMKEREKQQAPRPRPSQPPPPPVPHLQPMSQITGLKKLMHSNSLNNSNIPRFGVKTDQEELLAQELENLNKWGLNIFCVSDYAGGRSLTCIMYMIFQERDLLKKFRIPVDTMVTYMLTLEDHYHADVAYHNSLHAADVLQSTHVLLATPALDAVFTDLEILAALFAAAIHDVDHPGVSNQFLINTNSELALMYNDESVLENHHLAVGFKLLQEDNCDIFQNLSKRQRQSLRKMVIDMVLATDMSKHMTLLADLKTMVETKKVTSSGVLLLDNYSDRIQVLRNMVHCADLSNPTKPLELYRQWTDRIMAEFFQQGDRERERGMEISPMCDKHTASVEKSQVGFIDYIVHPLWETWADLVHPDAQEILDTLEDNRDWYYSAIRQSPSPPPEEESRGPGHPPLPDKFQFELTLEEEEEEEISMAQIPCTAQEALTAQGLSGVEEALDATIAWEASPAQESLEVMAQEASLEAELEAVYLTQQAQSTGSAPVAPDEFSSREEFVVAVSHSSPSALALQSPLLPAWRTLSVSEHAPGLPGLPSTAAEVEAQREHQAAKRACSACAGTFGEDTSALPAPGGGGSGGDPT
UniProt Q6PCE3: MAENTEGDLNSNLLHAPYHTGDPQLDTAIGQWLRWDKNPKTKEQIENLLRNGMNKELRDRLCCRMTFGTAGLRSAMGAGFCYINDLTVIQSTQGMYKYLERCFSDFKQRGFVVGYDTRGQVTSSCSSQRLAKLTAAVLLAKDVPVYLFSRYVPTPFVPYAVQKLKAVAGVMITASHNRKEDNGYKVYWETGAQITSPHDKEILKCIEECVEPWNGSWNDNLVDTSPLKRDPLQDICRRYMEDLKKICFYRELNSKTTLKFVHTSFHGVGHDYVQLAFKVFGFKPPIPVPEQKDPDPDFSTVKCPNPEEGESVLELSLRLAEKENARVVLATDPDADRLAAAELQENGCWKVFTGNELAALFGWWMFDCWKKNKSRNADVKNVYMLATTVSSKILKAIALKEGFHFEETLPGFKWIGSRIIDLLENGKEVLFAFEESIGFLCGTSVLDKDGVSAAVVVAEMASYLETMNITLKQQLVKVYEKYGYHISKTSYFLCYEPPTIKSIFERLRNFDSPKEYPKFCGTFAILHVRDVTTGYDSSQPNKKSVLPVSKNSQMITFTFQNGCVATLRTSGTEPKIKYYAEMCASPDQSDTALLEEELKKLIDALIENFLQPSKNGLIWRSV
UniProt O15067, 508-527: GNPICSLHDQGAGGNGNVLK
UniProt Q96G03: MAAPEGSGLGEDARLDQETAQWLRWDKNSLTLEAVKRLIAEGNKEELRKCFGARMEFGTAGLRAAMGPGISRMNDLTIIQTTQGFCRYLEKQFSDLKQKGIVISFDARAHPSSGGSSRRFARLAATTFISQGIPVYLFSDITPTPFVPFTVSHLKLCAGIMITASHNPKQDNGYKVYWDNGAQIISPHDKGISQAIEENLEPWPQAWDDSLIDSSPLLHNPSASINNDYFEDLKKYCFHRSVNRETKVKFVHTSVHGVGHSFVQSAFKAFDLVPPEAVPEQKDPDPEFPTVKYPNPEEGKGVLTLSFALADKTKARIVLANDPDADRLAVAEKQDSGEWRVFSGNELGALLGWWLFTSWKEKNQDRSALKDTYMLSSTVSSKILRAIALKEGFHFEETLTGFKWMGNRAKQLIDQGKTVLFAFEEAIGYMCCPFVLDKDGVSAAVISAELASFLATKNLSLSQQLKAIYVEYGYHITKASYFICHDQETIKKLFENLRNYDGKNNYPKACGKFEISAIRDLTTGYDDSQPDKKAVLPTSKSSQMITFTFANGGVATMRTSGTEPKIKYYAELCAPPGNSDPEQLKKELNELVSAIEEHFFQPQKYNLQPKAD
UniProt Q16822, whole entry, looked up: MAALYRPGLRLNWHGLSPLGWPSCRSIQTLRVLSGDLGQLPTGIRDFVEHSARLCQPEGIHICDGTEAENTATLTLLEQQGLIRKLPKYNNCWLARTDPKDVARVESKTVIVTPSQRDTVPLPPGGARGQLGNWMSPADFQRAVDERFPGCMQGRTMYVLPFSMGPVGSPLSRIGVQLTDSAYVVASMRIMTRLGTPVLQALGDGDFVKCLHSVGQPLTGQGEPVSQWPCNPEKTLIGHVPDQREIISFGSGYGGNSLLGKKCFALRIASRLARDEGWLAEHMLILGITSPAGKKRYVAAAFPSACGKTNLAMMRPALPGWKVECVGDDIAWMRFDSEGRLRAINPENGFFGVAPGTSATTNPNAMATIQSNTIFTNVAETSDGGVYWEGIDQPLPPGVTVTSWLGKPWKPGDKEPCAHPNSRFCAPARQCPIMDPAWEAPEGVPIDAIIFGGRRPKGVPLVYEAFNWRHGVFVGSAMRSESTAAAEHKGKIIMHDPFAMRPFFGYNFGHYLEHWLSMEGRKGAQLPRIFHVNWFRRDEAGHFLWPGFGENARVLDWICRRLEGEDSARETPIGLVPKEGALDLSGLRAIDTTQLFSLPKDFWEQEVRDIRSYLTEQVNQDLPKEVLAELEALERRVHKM
UniProt Q8N8D1: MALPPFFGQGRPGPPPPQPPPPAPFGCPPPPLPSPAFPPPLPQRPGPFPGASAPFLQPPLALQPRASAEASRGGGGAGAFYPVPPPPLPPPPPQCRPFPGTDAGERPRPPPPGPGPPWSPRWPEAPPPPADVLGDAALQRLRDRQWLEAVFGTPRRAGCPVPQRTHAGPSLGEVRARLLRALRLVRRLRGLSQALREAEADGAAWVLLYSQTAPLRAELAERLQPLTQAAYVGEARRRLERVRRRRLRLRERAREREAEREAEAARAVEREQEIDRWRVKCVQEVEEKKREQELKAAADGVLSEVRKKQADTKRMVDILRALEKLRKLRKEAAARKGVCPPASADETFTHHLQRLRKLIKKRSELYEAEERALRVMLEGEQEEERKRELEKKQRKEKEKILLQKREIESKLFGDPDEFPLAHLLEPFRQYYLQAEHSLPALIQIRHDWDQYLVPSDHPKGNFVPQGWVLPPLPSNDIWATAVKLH
UniProt Q6P996: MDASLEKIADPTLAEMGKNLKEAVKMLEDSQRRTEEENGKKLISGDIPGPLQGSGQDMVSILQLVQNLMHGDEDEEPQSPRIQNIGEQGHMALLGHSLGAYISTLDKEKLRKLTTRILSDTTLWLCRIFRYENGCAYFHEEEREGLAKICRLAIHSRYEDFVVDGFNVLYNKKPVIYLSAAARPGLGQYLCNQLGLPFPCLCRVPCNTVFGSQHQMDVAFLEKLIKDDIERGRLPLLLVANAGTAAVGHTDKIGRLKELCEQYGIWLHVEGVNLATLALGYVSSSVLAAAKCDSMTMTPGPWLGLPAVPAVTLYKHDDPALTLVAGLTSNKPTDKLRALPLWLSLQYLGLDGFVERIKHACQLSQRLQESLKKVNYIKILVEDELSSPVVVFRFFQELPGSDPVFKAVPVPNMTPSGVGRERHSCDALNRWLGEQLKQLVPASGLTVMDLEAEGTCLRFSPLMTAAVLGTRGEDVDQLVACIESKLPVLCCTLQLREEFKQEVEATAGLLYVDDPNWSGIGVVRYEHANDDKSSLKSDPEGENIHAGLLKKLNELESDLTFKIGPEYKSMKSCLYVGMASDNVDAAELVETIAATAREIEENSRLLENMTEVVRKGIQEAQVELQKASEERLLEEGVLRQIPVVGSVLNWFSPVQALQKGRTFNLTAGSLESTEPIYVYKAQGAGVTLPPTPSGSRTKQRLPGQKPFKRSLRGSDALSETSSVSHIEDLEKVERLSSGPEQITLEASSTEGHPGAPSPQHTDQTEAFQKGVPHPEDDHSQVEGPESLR
UniProt Q01804: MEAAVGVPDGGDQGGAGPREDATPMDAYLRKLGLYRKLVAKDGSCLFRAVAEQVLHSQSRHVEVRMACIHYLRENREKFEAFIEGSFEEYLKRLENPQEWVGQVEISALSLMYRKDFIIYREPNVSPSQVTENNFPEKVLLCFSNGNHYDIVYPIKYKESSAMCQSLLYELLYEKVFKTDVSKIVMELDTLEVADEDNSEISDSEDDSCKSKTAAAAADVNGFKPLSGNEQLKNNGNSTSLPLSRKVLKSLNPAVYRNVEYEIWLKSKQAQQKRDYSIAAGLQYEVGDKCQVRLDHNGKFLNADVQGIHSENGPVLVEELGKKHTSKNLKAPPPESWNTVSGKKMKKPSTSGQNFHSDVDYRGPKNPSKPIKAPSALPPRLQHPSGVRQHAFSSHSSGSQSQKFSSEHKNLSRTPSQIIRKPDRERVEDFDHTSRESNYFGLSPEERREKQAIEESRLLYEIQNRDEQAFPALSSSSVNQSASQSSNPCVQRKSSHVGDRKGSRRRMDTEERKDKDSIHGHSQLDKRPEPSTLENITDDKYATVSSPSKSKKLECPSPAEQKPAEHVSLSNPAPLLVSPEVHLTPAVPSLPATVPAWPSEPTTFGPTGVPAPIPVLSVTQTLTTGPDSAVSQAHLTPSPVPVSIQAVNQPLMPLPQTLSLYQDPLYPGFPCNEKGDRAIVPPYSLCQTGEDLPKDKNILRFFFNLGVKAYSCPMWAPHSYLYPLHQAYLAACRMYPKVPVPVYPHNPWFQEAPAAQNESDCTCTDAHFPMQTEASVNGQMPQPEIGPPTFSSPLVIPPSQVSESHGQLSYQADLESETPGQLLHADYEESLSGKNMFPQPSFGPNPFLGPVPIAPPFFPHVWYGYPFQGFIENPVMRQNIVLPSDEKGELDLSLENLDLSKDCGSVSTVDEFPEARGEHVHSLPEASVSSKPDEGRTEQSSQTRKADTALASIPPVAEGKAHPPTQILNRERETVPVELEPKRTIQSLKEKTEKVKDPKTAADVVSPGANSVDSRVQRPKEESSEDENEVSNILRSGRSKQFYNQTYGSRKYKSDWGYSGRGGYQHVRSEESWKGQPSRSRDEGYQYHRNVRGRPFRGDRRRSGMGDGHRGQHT
UniProt O15534: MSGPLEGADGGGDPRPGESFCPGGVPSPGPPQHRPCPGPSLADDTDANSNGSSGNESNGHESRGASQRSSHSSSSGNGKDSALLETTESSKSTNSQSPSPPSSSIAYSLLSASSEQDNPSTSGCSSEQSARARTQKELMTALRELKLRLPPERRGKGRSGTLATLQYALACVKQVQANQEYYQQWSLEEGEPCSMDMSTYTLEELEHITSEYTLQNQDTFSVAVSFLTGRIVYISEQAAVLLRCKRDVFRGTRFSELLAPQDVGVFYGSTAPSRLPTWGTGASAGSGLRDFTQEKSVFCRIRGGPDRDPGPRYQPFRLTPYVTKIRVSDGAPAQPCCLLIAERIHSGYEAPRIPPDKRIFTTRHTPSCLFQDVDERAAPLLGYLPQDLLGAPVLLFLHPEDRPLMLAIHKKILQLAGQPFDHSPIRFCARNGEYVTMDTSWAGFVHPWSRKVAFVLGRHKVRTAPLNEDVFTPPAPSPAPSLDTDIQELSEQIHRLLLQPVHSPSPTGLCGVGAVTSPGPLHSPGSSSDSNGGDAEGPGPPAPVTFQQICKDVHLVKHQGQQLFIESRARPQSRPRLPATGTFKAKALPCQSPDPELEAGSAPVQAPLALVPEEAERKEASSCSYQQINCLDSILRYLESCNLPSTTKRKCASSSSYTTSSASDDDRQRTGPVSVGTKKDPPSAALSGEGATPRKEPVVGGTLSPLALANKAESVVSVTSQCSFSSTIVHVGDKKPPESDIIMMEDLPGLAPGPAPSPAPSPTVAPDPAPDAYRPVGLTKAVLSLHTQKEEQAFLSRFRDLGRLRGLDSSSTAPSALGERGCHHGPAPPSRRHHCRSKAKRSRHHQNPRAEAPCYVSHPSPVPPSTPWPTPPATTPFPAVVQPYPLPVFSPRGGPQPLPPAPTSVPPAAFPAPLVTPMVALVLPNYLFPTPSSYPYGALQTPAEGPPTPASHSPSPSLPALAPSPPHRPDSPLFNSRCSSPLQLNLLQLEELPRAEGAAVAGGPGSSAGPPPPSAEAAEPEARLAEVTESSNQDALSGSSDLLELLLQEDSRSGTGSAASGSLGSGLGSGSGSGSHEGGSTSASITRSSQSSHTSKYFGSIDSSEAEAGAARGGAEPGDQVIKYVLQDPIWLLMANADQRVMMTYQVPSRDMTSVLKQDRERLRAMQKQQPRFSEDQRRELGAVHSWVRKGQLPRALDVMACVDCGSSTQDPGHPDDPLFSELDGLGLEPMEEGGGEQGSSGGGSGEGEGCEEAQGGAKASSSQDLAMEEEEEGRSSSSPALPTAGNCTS
UniProt P12955, 451-470: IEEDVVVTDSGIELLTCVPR

What follows are targets tested with ClCC(=O)N[C@@H]1CCCc2ccccc12 (assay: log2 mean competition ratio of IA-DTB cysteine labelling (DMSO/compound) (log2 ratio); higher = stronger cysteine engagement by compound). Details: 50 µM; treatment time: 4 h; cell line lysate: HEK293T.
Description: (§1)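 IA-DTB competitive cysteine chemoproteomics in HEK293T RIPA lysate. Lysates were treated with compound 29 or 30 at 50 or 200 µM for 4 h, then IA-DTB (500 µM, 1 h), trypsin-digested, NeutrAvidin-enriched and analysed by diaPASEF. Competition ratio = intensity DMSO / intensity compound (n=4 treated, n=64 DMSO); binding: mean log2 CR ≥ 1 and p ≤ 0.05 plus QC filters. Target is the cysteine site.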

Row | Target | log2 mean competition ratio
1 | PDE4A C218 (UniProt P27815) | -0.196
2 | PGM2L1 C303 (UniProt Q6PCE3) | 0.297
3 | PFAS C512 (UniProt O15067) | 0.253
4 | PEX1 C1185 (UniProt O43933) | -0.229
5 | PFKP C718 (UniProt Q01813) | -0.0515
6 | OXR1 C410 (UniProt Q8N573) | -0.0787
7 | PFAS C270 (UniProt O15067) | -0.0882
8 | PGM2 C484 (UniProt Q96G03) | 0.243
9 | PDSS2 C365 (UniProt Q86YH6) | 0.116
10 | PDK2 C195 (UniProt Q15119) | 0.144
11 | PCK2 C151 (UniProt Q16822) | -0.094
12 | PDZD8 C667 (UniProt Q8NEN9) | -0.246
13 | PDE7A C402 | -0.36
14 | PDCD11 C1754 (UniProt Q14690) | -0.124
15 | PC C622 (UniProt P11498) | -0.0606
16 | PDCD6IP C40 (UniProt Q8WUM4) | 0.0935
17 | PDCD7 C159 (UniProt Q8N8D1) | -0.0316
18 | PDE4DIP C603 | -0.201
19 | PCM1 C171 (UniProt Q15154) | -0.0628

Row | Target | log2 mean competition ratio
20 | PCNT C1225 (UniProt O95613) | -0.0326
21 | PFKFB3 C178 (UniProt Q16875) | 0.194
22 | PDXDC1 C135 (UniProt Q6P996) | 0.334
23 | PDCD11 C557 (UniProt Q14690) | -0.138
24 | OTUD4 C45 (UniProt Q01804) | 0.28
25 | PDE3B C35 (UniProt Q13370) | 0.0522
26 | PER1 C368 (UniProt O15534) | -0.168
27 | PEPD C467 (UniProt P12955) | -0.198
28 | PCDH9 C401 | -0.0739
29 | PDP1 C132 (UniProt Q9P0J1) | 0.000371
30 | PHF12 C613 (UniProt Q96QT6) | 0.212
31 | PARD6G C112 | 0.115
32 | PAN2 C826 (UniProt Q504Q3) | -0.171
33 | PGM3 C200 | -0.235
34 | PARG C711 (UniProt Q86W56) | 0.133
35 | PCBP4 C113 | 0.0731
36 | PAXBP1 C870 (UniProt Q9Y5B6) | -0.171
37 | PAK4 C462 (UniProt O96013) | 0.312

Same assay, conditions: 200 µM; treatment time: 4 h; cell line lysate: HEK293T

Row | Target | log2 mean competition ratio
38 | PDE4A C218 (UniProt P27815) | 0.245
39 | PGM2L1 C303 (UniProt Q6PCE3) | 0.632
40 | PFAS C512 (UniProt O15067) | 0.229
41 | PEX1 C1185 (UniProt O43933) | 0.0464
42 | PFKP C718 (UniProt Q01813) | -0.21
43 | OXR1 C410 (UniProt Q8N573) | -0.19
44 | PFAS C270 (UniProt O15067) | -0.00667
45 | PGM2 C484 (UniProt Q96G03) | 0.0211
46 | PDSS2 C365 (UniProt Q86YH6) | 0.148
47 | PDK2 C195 (UniProt Q15119) | 0.241
48 | PCK2 C151 (UniProt Q16822) | 0.425
49 | PDZD8 C667 (UniProt Q8NEN9) | 0.0485
50 | PDE7A C402 | 0.361
51 | PDCD11 C1754 (UniProt Q14690) | 0.192
52 | PC C622 (UniProt P11498) | 0.0519
53 | PDCD6IP C40 (UniProt Q8WUM4) | 0.63
54 | PDCD7 C159 (UniProt Q8N8D1) | -0.0387
55 | PDE4DIP C603 | 0.119
56 | PCM1 C171 (UniProt Q15154) | 0.241

Row | Target | log2 mean competition ratio
57 | PCNT C1225 (UniProt O95613) | 0.172
58 | PFKFB3 C178 (UniProt Q16875) | -0.879
59 | PDXDC1 C135 (UniProt Q6P996) | -0.227
60 | PDCD11 C557 (UniProt Q14690) | -0.179
61 | OTUD4 C45 (UniProt Q01804) | 1.58
62 | PDE3B C35 (UniProt Q13370) | -0.0813
63 | PER1 C368 (UniProt O15534) | 0.422
64 | PEPD C467 (UniProt P12955) | 0.0696
65 | PCDH9 C401 | -0.112
66 | PDP1 C132 (UniProt Q9P0J1) | -0.354
67 | PHF12 C613 (UniProt Q96QT6) | -0.058
68 | PARD6G C112 | 0.297
69 | PAN2 C826 (UniProt Q504Q3) | -0.741
70 | PGM3 C200 | 0.141
71 | PARG C711 (UniProt Q86W56) | -0.352
72 | PCBP4 C113 | 0.0389
73 | PAXBP1 C870 (UniProt Q9Y5B6) | -0.14
74 | PAK4 C462 (UniProt O96013) | 0.11

These targets were tested with ClCC(=O)N[C@H]1CCCc2ccccc12 in the same assay as above. Details: 50 µM; treatment time: 4 h; cell line lysate: HEK293T.
Description: as §1

Row | Target | log2 mean competition ratio
75 | PDE4A C218 (UniProt P27815) | -0.573
76 | PGM2L1 C303 (UniProt Q6PCE3) | 0.39
77 | PFAS C512 (UniProt O15067) | -0.437
78 | PEX1 C1185 (UniProt O43933) | -0.214
79 | PFKP C718 (UniProt Q01813) | -0.332
80 | OXR1 C410 (UniProt Q8N573) | -0.202
81 | PFAS C270 (UniProt O15067) | -0.344
82 | PGM2 C484 (UniProt Q96G03) | -0.24
83 | PDK2 C195 (UniProt Q15119) | -0.279
84 | PCK2 C151 (UniProt Q16822) | -0.571
85 | PDZD8 C667 (UniProt Q8NEN9) | -0.0689
86 | PDE7A C402 | 0.153
87 | PDCD11 C1754 (UniProt Q14690) | -0.673
88 | PC C622 (UniProt P11498) | -0.125
89 | PDCD6IP C40 (UniProt Q8WUM4) | 0.347
90 | PDCD7 C159 (UniProt Q8N8D1) | 0.127
91 | PDE4DIP C603 | -0.401

Row | Target | log2 mean competition ratio
92 | PCM1 C171 (UniProt Q15154) | 0.116
93 | PCNT C1225 (UniProt O95613) | -0.0818
94 | PDXDC1 C135 (UniProt Q6P996) | -0.49
95 | PDCD11 C557 (UniProt Q14690) | -0.225
96 | OTUD4 C45 (UniProt Q01804) | 0.131
97 | PER1 C368 (UniProt O15534) | -0.0539
98 | PEPD C467 (UniProt P12955) | -0.105
99 | PCDH9 C401 | 0.283
100 | PDP1 C132 (UniProt Q9P0J1) | 0.255
101 | PHF12 C613 (UniProt Q96QT6) | 0.158
102 | PARD6G C112 | 0.185
103 | PGM3 C200 | -0.21
104 | PARG C711 (UniProt Q86W56) | 0.0546
105 | PCBP4 C113 | -0.22
106 | PAXBP1 C870 (UniProt Q9Y5B6) | 0.00427
107 | PAK4 C462 (UniProt O96013) | 0.255
